# Experimental data taken from the supplement of paper PMC8047044.
# Counter-ions that a name gives are not always drawn. The list shows a part of the results. Many values rest on one well or one pass, so single values are uncertain.
# Tested on: Neuro-2a
# Experiment: neurite formation score, plate-normalized to DMSO control mean 5.04 (score (0-8 scale)); higher = more or longer neurites
# Details: 10 µM
row,SMILES,neurite formation score
1,COc1cc2ncnc(Nc3cccc(Cl)c3)c2cc1OC,4.85
2,CCN(CC)CCNC(=O)c1c(C)[nH]c(/C=C2\C(=O)Nc3ccc(F)cc32)c1C [Sunitinib malate],2.52
3,Cc1cc(C)c(/C=C2\C(=O)Nc3ccccc32)[nH]1 [Semaxanib (SU5416)],5.19
4,Cc1ccc(NC(=O)c2cccc(C(C)(C)C#N)c2)cc1Nc1ccc2ncn(C)c(=O)c2c1,1.85
5,CCc1cc(Nc2nccc(-c3c(-c4ccc(OC)c(C(=O)Nc5c(F)cccc5F)c4)nc4ccccn34)n2)c(OC)cc1N1CCC(N2CCN(S(C)(=O)=O)CC2)CC1,4.21
6,NC1(C(=O)N[C@@H](CCO)c2ccc(Cl)cc2)CCN(c2ncnc3[nH]ccc23)CC1,5.54
7,CN(C)CCCn1cc(C2=C(c3c[nH]c4ccccc34)C(=O)NC2=O)c2ccccc21,4.52
8,O=c1cc(N2CCOCC2)oc2c(-c3ccccc3)cccc12,4.52
9,CC(C)(C)Cn1c(N)nc2ccc(-c3[nH]c(C(C)(C)C)nc3-c3ccc(F)cc3)nc21,4.52
10,"CCCCCCCCCCCCCC(=O)OC[C@H](CO)OC(=O)CCCCCCCCCCCCC [1,2-Dimyristoyl-sn-glycerol]",4.86
11,Cc1ccc(-n2nc(C(C)(C)C)cc2NC(=O)Nc2ccc(OCCN3CCOCC3)c3ccccc23)cc1 [BIRB 796 (Doramapimod)],2.52
12,CC(C)(C#N)c1ccc(N2C(=O)OCc3cnc4ccc(-c5cnc6ccccc6c5)cc4c32)cc1,5.09
13,N#C/C(=C(/N)Sc1ccc(N)cc1)c1ccccc1C(F)(F)F,4.54
14,Cc1cc(O)c2c(c1)C(=O)c1cccc(O)c1C2=O [Chrysophanol],3.42
15,NC(=O)c1cccc(-c2cc(Nc3ccc(OC(F)(F)F)cc3)ncn2)c1,4.09
16,Cn1cc(/C=C2\C(=O)Nc3cccnc32)c2ccccc21,4.52
17,CC(C)(C)c1cnc(CSc2cnc(NC(=O)C3CCNCC3)s2)o1,6.21
18,C[C@H]1[C@H](C)CC[C@]2(C(=O)O)CC[C@]3(C)C(=CC[C@@H]4[C@@]5(C)C[C@@H](O)[C@H](O)[C@@](C)(CO)[C@@H]5CC[C@]43C)[C@H]12 [Asiatic acid],4.52

row,SMILES,neurite formation score
1,COc1cc(N2CCC(N(C)C)CC2)ccc1Nc1ncc(Cl)c(Nc2ccccc2P(C)(C)=O)n1,4.54
2,COc1cc(Nc2ncc3c(n2)-c2ccc(Cl)cc2C(c2c(F)cccc2OC)=NC3)ccc1C(=O)O [MLN8237 (Alisertib)],1.08
3,CC(C)(CCCCCC(O)CCCCCC(C)(C)C(=O)O)C(=O)O,4.42
4,CNC(=O)c1cc(Oc2ccc(NC(=O)Nc3ccc(Cl)c(C(F)(F)F)c3)c(F)c2)ccn1 [Regorafenib monohydrate],3.08
5,COc1cc2nccc(Oc3ccc(NC(=O)NC4CC4)c(Cl)c3)c2cc1C(N)=O [Lenvatinib (E7080)],3.21
6,CN([C@@H](Cc1ccc(OS(=O)(=O)c2cccc3cnccc23)cc1)C(=O)N1CCN(c2ccccc2)CC1)S(=O)(=O)c1cccc2cnccc12,2.85
7,COc1cc(-c2cc(-c3cccc(O)c3)cnc2N)cc(OC)c1OC,0.855
8,Cc1ncc(-c2ccnc(Nc3ccc(S(C)(=O)=O)cc3)n2)n1C(C)C,2.85
9,c1cc(-c2cnn3cc(-c4ccc(N5CCNCC5)cc4)cnc23)c2cccnc2c1,4.19
10,Cc1cc(Nc2cc(N3CCN(C)CC3)nc(/C=C/c3ccccc3)n2)n[nH]1,-0.256
11,CNC(=O)c1ccccc1Nc1cc(Nc2ccc(N3CCOCC3)cc2OC)ncc1C(F)(F)F,2.74
12,CC[C@@H]1C(=O)N(C)c2cnc(Nc3ccc(C(=O)N[C@H]4CC[C@H](N5CCN(CC6CC6)CC5)CC4)cc3OC)nc2N1C(C)C [BI6727 (Volasertib)],4.76
13,C[C@@]1(C(=O)Nc2ccc(F)nc2)CCCN1c1nc(Nc2cc(C3CC3)n[nH]2)c2cccn2n1,0.543
14,O=C(NC[C@H](O)CO)c1ccncc1Nc1ccc(I)cc1F,4.85
15,COc1cc2/c(=N/c3ccc(Br)cc3F)nc[nH]c2cc1OCC1CCN(C)CC1 [Vandetanib (ZD6474)],3.76
16,C=CC(=O)Nc1ccc(CN2C(=O)N(c3cc(OC)cc(OC)c3)Cc3cnc(Nc4ccc(N5CCN(C)CC5)cc4)nc32)cc1,1.09
17,Cc1ccc(Nc2nccc(N(C)c3ccc4c(C)n(C)nc4c3)n2)cc1S(N)(=O)=O [Pazopanib Hydrochloride],3.85

# Reprinted from the results shown, three compounds:
row,SMILES,neurite formation score
2,COc1cc(Nc2ncc3c(n2)-c2ccc(Cl)cc2C(c2c(F)cccc2OC)=NC3)ccc1C(=O)O [MLN8237 (Alisertib)],1.08
3,CC(C)(CCCCCC(O)CCCCCC(C)(C)C(=O)O)C(=O)O,4.42
4,CNC(=O)c1cc(Oc2ccc(NC(=O)Nc3ccc(Cl)c(C(F)(F)F)c3)c(F)c2)ccn1 [Regorafenib monohydrate],3.08
